Source: PubChem BioAssay AID1224826 (NIAID, 2016)
Assay: 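Genes that change LPS-induced Tnf promoter activity in mouse macrophages when knocked down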 (primary screen). Cell system: RAW264.7 G9 macrophages from mouse bearing reporters for p65 (GFP) and the Tnf promoter (mCherry). Reagents: siRNA pool against mouse genes, 100 nM. Timing: 16 h of LPS stimulation, after 2 days of siRNA transfection. Conditions: bacterial lipopolysaccharide (Salmonella minnesota R595), 10 ng/ml. Measured: 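Imaged Tnf reporter mCherry in nuclei, minus background, normalised per plate to the median and expressed as robust z-scores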. Direction: Tnf reporter robust z-score: higher = stronger Tnf promoter reporter signal after LPS; Tnf reporter intensity: higher = stronger Tnf promoter reporter signal. Hit rule: 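a well counts as active at a score of -1.3 or below (Tlr4 knock-down control median) or above 3 (raised signal); controls and wells holding fewer than 50 cells are excluded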. Meaning of the calls: active = Tnf reporter clearly lowered or raised; inactive = no clear change in Tnf reporter.
The deposit covers about 17,000 reagents; shown is a part drawn at random. In the full data, about 1,110 (6.6%) are marked active. 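Active means lowered or raised reporter signal; replicate intensities are raw and not normalised per plate.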 Entries without a mark were called inactive. No sequences are given here.

gene,Tnf reporter robust z-score,fewer than 50 cells in well,"Tnf reporter intensity, replicate 1","Tnf reporter intensity, replicate 2"
Rnf6 (GeneID 74132),0.62,enough cells in well,194,187
Or6c69c (GeneID 258666),3.29 (active),enough cells in well,259,182
Dixdc1 (GeneID 330938),3.52 (active),enough cells in well,398,258
Lsm10 (GeneID 116748),-1.27,enough cells in well,107,84.6
Cdkl2 (GeneID 53886),0.02,enough cells in well,197,160
Mrpl40 (GeneID 18100),-0.34,enough cells in well,143,126
Tcf4 (GeneID 21413),-0.49,enough cells in well,218,97.5
Galnt13 (GeneID 271786),-1.53 (active),enough cells in well,119,68.3
H2al2a (GeneID 68231),-0.52,enough cells in well,180,67.7
Sh2b3 (GeneID 16923),0.19,enough cells in well,221,140
Nxn (GeneID 18230),-0.38,enough cells in well,174,122
Txn1 (GeneID 22166),0.26,enough cells in well,218,288
Arhgap24 (GeneID 231532),0.35,enough cells in well,201,175
C230029D21Rik (retired record) (GeneID 320255),,fewer than 50 cells per well; well left out of calls,77.4,69.2
Acsbg1 (GeneID 94180),-0.96,enough cells in well,131,110
Ifi202b (GeneID 26388),-0.89,enough cells in well,168,68.6
Rpl26 (GeneID 19941),,fewer than 50 cells per well; well left out of calls,86,84.1
Prdm9 (GeneID 213389),-1.07,enough cells in well,123,144
Slitrk3 (GeneID 386750),,fewer than 50 cells per well; well left out of calls,67.9,45.5
Cdc26 (GeneID 66440),1.06,enough cells in well,222,240
Abcc3 (GeneID 76408),-0.97,enough cells in well,104,108
Myog (GeneID 17928),,fewer than 50 cells per well; well left out of calls,165,116
Lect2 (GeneID 16841),0.62,enough cells in well,233,159
Nle1 (GeneID 217011),0.08,enough cells in well,234,281
Srebf2 (GeneID 20788),0.14,enough cells in well,322,201
Pax6 (GeneID 18508),-1.36 (active),enough cells in well,113,113
Uckl1 (GeneID 68556),-1.01,enough cells in well,119,87.2
Smad7 (GeneID 17131),2.62,enough cells in well,348,323
Dkk1 (GeneID 13380),-0.94,enough cells in well,121,83
Ifi44l (GeneID 15061),-1.01,enough cells in well,171,122
Gm10101 (GeneID 328388),1.77,enough cells in well,249,264
1700123K08Rik (GeneID 76658),-0.82,enough cells in well,157,88.3
Mrps35 (GeneID 232536),-0.9,enough cells in well,145,81.2
Nsun7 (GeneID 70918),3.44 (active),enough cells in well,360,147
BC023105 (GeneID 667597),0.6,enough cells in well,195,310
B3gnt2 (GeneID 53625),-0.21,enough cells in well,167,145
Anxa11 (GeneID 11744),-0.06,enough cells in well,156,175
Zfand5 (GeneID 22682),0.66,enough cells in well,146,159
Etaa1 (GeneID 68145),-0.6,enough cells in well,128,117
Mid2 (GeneID 23947),-0.34,enough cells in well,192,110
Chst2 (GeneID 54371),-0.38,enough cells in well,136,164
Or3a1c (GeneID 258703),0.21,enough cells in well,335,82.2
Epb41l5 (GeneID 226352),0.3,enough cells in well,300,132
Spef2 (GeneID 320277),,fewer than 50 cells per well; well left out of calls,131,116
Aire (GeneID 11634),0.21,enough cells in well,195,164
Nnat (GeneID 18111),1.46,enough cells in well,345,171
Rnf8 (GeneID 58230),-1.69 (active),enough cells in well,157,71.5
Mgat4d (GeneID 67555),-0.25,enough cells in well,199,101
Diaph3 (GeneID 56419),-0.31,enough cells in well,209,182
Or1j12 (GeneID 258953),-0.45,enough cells in well,193,74.9
Or13a25 (GeneID 258963),-1.94 (active),enough cells in well,34.8,39.8
Mbd3 (GeneID 17192),0.37,enough cells in well,300,229
Or12e10 (GeneID 258317),-0.77,enough cells in well,151,101
Mmp7 (GeneID 17393),-0.07,enough cells in well,277,185
Tmx2 (GeneID 66958),,fewer than 50 cells per well; well left out of calls,120,40.8
Or8k53 (GeneID 259023),0.42,enough cells in well,198,185
Pfdn2 (GeneID 18637),0.37,enough cells in well,282,196
Or4k77 (GeneID 228443),2.53,enough cells in well,335,223
Ubl5 (GeneID 66177),-0.43,enough cells in well,181,214
Lpin2 (GeneID 64898),-0.12,enough cells in well,183,136
Stk31 (GeneID 77485),0.76,enough cells in well,261,133
Zbtb21 (GeneID 114565),,fewer than 50 cells per well; well left out of calls,20.5,47.6
Plcg2 (GeneID 234779),-0.87,enough cells in well,165,144
Hbp1 (GeneID 73389),0.21,enough cells in well,271,170
Or7g35 (GeneID 258517),,fewer than 50 cells per well; well left out of calls,56.5,93.9
Rs1 (GeneID 20147),-0.43,enough cells in well,222,204
Ago3 (GeneID 214150),-0.61,enough cells in well,155,86.8
Mrps18a (GeneID 68565),-1.84 (active),enough cells in well,109,27.3
Tnfrsf19 (GeneID 29820),-0.73,enough cells in well,183,96.4
Slc67a2 (GeneID 211798),0.89,enough cells in well,267,70.3
Kcnk5 (GeneID 16529),1.28,enough cells in well,276,188
Pcdhb3 (GeneID 93874),-0.62,enough cells in well,190,144
Maged2 (GeneID 80884),1.27,enough cells in well,292,192
Spag17 (GeneID 74362),,fewer than 50 cells per well; well left out of calls,274,79.5
Gpc3 (GeneID 14734),0.57,enough cells in well,230,271

A stretch from the list above, for reference:
gene,Tnf reporter robust z-score,fewer than 50 cells in well,"Tnf reporter intensity, replicate 1","Tnf reporter intensity, replicate 2"
Aire (GeneID 11634),0.21,enough cells in well,195,164
Nnat (GeneID 18111),1.46,enough cells in well,345,171
Rnf8 (GeneID 58230),-1.69 (active),enough cells in well,157,71.5
Mgat4d (GeneID 67555),-0.25,enough cells in well,199,101
